From publication doi:10.1101/2025.11.09.687409
Like-named read-outs stand apart in the source and are kept apart here. Results are given in words; binding and its absence hold for the method and conditions named. Binding seen in cells or lysates may run through a third protein. Binding calls can cover weak binding; strength is not graded here. Sequences can lack the tags named with a protein.

How the values were obtained:
[1] = biological target: T1, FLAG-SLC25A5 (mitochondrial ADP/ATP translocase) (UniProt P05141); assay: co-IP
T1 sequence: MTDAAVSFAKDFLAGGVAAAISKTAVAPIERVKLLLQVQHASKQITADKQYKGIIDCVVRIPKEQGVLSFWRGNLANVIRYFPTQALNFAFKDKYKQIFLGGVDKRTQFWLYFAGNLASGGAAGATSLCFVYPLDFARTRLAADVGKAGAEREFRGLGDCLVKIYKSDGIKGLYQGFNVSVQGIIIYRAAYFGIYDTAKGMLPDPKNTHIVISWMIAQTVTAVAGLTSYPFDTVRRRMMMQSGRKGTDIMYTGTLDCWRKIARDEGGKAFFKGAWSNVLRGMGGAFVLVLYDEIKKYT

[2] = biological target: T1, FLAG-SLC25A5 (mitochondrial ADP/ATP translocase); assay: co-IP; remark: listed apart in the source

“GFP-tagged PE18 (BCG effector PE18, encoded by BCG_1820) (Mycobacterium bovis BCG)” was tested. Which binding [1] did it give?
The binding was “binds”.

And the binding [2]?
The binding was “binds”.
